Test results published in the supplement of paper PMC10849652.
Some of the results follow.

The chains behind the UniProt entries cited, without tags or fusion partners. Where a name states a change or a piece, a line headed by the entry shows the natural chain unless it says otherwise.
UniProt O00308: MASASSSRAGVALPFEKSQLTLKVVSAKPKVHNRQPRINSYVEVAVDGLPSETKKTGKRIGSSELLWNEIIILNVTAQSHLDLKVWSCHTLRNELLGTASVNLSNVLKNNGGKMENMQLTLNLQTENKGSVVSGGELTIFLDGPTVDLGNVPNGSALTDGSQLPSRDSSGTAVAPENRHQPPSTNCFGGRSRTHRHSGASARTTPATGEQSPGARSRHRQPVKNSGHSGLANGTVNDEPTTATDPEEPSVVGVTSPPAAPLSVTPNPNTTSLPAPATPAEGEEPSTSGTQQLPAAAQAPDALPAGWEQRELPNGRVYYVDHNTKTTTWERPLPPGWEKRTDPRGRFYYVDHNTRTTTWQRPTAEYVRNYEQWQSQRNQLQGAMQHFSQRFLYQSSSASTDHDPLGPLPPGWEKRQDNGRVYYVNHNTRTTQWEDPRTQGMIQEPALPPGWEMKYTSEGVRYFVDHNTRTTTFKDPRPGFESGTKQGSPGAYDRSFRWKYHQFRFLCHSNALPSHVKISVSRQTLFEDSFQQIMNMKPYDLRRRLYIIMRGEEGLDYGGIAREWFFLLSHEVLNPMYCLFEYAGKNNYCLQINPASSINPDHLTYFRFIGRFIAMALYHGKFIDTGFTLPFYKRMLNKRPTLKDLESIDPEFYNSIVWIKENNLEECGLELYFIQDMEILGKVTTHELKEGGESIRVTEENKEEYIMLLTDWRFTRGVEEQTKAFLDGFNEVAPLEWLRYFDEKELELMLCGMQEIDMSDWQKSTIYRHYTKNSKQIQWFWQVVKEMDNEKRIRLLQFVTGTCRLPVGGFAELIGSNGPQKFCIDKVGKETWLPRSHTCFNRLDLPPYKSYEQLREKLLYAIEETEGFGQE
UniProt P04004: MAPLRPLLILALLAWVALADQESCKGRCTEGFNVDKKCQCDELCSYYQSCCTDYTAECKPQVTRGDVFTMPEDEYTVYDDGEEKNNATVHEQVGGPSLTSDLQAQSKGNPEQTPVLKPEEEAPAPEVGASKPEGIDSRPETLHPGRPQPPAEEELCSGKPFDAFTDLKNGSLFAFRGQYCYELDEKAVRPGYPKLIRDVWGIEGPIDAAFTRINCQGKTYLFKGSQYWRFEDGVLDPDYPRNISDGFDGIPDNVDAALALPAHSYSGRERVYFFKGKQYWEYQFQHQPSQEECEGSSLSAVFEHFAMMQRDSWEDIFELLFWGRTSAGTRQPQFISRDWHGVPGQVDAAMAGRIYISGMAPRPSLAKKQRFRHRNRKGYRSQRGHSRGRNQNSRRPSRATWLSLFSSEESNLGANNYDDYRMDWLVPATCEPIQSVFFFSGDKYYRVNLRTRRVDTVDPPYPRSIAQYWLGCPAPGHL
UniProt A6NGB9: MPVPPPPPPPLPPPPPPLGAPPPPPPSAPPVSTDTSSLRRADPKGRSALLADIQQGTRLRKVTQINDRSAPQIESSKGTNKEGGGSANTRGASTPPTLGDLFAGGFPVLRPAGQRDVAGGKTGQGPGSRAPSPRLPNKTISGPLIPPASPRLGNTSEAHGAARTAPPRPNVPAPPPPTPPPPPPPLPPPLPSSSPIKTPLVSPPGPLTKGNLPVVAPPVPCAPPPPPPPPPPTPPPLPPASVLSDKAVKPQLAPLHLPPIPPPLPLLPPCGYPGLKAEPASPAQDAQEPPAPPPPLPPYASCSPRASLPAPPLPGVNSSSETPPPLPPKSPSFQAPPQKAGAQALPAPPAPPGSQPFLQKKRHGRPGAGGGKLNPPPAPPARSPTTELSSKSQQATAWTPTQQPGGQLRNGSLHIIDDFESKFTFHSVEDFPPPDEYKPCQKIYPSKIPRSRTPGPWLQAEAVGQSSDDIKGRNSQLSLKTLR
UniProt O75717: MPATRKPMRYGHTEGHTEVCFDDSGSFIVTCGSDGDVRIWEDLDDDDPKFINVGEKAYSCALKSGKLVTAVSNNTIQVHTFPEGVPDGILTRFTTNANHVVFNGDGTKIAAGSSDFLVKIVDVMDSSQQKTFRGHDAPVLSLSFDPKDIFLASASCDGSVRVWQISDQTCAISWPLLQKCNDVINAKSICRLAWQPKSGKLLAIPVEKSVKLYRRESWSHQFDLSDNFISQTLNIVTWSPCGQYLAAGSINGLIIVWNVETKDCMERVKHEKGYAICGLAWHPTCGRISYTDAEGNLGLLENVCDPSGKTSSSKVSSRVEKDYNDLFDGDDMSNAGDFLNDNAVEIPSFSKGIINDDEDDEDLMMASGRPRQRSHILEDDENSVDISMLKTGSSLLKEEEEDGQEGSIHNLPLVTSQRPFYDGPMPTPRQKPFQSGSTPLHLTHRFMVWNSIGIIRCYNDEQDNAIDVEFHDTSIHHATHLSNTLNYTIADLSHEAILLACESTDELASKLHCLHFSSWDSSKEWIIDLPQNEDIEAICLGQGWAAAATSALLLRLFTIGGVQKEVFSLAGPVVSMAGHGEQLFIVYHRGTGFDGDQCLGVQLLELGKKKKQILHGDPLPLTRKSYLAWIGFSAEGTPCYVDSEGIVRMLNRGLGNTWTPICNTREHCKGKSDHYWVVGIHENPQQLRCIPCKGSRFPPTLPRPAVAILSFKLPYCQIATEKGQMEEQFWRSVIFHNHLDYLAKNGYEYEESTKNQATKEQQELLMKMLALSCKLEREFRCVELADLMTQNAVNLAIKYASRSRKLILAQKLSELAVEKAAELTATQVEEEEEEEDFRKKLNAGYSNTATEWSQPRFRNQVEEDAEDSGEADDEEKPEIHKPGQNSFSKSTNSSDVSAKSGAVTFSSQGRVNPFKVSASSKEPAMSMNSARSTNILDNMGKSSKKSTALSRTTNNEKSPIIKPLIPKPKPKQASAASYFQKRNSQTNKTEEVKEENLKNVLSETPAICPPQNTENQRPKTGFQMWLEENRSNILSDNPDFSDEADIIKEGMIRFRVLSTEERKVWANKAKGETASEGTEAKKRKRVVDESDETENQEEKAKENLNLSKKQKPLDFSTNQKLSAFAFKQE
UniProt Q6UXN9, whole entry, looked up: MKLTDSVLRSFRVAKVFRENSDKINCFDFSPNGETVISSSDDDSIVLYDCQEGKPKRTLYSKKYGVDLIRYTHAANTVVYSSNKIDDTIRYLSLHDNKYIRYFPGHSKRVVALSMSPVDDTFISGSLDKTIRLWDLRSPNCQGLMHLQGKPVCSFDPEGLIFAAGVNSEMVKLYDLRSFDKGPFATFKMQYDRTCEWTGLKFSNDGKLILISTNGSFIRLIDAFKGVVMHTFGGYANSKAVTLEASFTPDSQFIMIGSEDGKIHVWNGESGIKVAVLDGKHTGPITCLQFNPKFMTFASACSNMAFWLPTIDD
UniProt Q92558: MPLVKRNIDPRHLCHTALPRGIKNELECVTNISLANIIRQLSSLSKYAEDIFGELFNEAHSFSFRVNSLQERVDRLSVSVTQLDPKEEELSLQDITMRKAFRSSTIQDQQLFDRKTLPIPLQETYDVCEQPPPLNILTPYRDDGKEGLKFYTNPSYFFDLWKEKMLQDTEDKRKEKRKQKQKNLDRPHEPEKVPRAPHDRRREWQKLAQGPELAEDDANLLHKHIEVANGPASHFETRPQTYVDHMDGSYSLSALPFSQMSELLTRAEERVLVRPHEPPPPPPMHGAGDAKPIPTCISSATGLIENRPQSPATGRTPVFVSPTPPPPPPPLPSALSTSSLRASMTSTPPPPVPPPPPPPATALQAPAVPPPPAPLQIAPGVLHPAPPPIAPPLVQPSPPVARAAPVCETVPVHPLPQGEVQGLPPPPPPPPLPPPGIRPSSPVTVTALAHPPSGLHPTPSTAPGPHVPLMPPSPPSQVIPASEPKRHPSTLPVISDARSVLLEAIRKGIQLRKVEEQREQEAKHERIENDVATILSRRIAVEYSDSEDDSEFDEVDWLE
UniProt Q15906, whole entry, looked up: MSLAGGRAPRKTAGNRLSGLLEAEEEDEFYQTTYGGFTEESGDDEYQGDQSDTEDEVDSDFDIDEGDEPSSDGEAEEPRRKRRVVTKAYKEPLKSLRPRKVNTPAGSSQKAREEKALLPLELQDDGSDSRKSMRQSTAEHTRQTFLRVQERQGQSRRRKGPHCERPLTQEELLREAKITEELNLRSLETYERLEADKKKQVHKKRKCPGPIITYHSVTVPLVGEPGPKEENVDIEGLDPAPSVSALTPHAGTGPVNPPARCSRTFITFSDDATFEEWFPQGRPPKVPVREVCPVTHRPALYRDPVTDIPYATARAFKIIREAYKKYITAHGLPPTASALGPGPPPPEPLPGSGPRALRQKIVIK
UniProt Q9P2S5: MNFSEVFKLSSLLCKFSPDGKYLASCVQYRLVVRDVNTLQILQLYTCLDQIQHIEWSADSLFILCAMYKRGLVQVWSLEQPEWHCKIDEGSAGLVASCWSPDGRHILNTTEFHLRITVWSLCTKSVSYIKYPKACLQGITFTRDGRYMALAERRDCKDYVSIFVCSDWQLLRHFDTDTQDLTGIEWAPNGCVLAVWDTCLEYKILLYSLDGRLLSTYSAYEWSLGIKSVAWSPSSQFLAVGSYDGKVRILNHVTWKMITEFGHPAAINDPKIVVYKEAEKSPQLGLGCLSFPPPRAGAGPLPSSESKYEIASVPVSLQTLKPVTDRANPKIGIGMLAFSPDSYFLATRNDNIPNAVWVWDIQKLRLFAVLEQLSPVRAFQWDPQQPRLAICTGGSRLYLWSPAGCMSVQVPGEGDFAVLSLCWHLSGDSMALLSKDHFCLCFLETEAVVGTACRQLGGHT
UniProt Q9H269: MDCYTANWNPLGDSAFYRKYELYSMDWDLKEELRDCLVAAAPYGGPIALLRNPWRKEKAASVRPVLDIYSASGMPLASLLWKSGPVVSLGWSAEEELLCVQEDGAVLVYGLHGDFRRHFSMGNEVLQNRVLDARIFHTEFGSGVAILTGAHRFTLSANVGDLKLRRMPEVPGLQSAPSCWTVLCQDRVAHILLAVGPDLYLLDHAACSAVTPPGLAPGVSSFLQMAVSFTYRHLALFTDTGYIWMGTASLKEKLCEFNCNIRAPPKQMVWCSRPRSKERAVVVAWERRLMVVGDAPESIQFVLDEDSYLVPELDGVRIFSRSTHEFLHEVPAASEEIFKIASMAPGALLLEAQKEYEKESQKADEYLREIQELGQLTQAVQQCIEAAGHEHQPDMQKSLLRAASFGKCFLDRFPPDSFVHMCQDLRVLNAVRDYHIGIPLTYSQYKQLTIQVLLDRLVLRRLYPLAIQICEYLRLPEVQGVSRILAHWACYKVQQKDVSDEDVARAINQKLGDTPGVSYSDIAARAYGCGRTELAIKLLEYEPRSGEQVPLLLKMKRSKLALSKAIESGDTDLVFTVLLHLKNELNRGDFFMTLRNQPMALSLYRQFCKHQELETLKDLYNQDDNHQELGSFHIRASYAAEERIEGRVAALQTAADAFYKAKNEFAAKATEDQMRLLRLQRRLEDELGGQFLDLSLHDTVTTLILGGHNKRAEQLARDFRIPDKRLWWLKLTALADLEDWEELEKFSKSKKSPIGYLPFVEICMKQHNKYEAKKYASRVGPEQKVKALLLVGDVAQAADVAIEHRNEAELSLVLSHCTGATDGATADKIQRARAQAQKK

Assays:
Test in all cases: log2 fold change, soluble protein after heating vs DMSO (PISA); higher = thermal stabilisation; K562 lysate, 10 uM; active = over 0.2 and 3.5 SD of the protein, either way, in both replicates (recomputed)
nilotinib = compound: Cc1cn(-c2cc(NC(=O)c3ccc(C)c(Nc4nccc(-c5cccnc5)n4)c3)cc(C(F)(F)F)c2)cn1 [nilotinib]
In short: (§1)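 Dounce homogenisation of K562 pellets in PBS pH 7.4 with 1 mM MgCl2 produced a crude extract, used at 1 mg/mL protein. Exposure to 10 μM compound lasted 30 min, and aliquots were then heated for 3 min across 48°C-58°C, pooled and brought to 0.5% NP-40 at 4°C. The supernatant after 21,000xg for 90 min was quantified by TMTpro 16plex LC-MS/MS with channel sums equalised. Duplicate values are given as log-two fold change in thermal stability relative to solvent controls.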

[1] = compound: Cc1nc(Nc2n[nH]c3c2CN(C(=O)N[C@H](CN(C)C)c2ccccc2)C3(C)C)c2sccc2n1
In short: as §1

dasatinib = compound: Cc1nc(Nc2ncc(C(=O)Nc3c(C)cccc3Cl)s2)cc(N2CCN(CCO)CC2)n1 [dasatinib]
In short: as §1

[2] = compound: Cc1ncc(-c2ccnc(Nc3ccc(S(C)(=O)=O)cc3)n2)n1C(C)C
In short: as §1

[3] = compound: Cn1cc(-c2ccc3c(c2)CCN3C(=O)Cc2cccc(C(F)(F)F)c2)c2c(N)ncnc21
In short: as §1

quisinostat = compound: Cn1cc(CNCC2CCN(c3ncc(C(=O)NO)cn3)CC2)c2ccccc21 [quisinostat]
In short: as §1

tipifarnib = compound: Cn1cncc1[C@@](N)(c1ccc(Cl)cc1)c1ccc2c(c1)c(-c1cccc(Cl)c1)cc(=O)n2C [tipifarnib]
In short: as §1

[4] = compound: NC(=O)Nc1cc(-c2cccc(F)c2)sc1C(=O)N[C@H]1CCCNC1
In short: as §1

[5] = compound: NC(=O)c1cnc(N[C@@H]2CCCC[C@@H]2N)nc1Nc1cccc(-n2nccn2)c1
In short: as §1

[6] = compound: NC1(c2ccc(-c3nc4ccn5c(=O)[nH]nc5c4cc3-c3ccccc3)cc2)CCC1
In short: as §1

[7] = compound: NCC(=O)Nc1ccc(-n2nc(C(F)(F)F)cc2-c2ccc3c(ccc4ccccc43)c2)cc1
In short: as §1

vorinostat = compound: O=C(CCCCCCC(=O)Nc1ccccc1)NO [vorinostat]
In short: as §1

silmitasertib = compound: O=C(O)c1ccc2c(c1)nc(Nc1cccc(Cl)c1)c1ccncc12 [silmitasertib]
In short: as §1

[8] = compound: O=C1NC(=O)C(c2cnc3ccccn23)=C1c1cn2c3c(cc(F)cc13)CN(C(=O)N1CCCCC1)CC2
In short: as §1

entospletinib = compound: c1cn2cc(-c3ccc4cn[nH]c4c3)nc(Nc3ccc(N4CCOCC4)cc3)c2n1 [entospletinib]
In short: as §1

Measured: log2 fold change

WWP2 (UniProt O00308)
inactive: nilotinib 0.043 | [1] -0.107 | dasatinib -0.143 | [2] 0.013 | [3] 0.155 | quisinostat 0.081 | tipifarnib 0.032 | [4] -0.025 | [5] -0.052 | [6] -0.042 | [7] 0.002 | vorinostat -0.143 | silmitasertib 0.016 | [8] 0.002 | entospletinib 0.047

WDR12 (UniProt Q9GZL7)
inactive: nilotinib 0.005 | [1] 0.014 | dasatinib -0.002 | [2] -0.015 | [3] -0.008 | quisinostat -0.006 | tipifarnib 0.031 | [4] 0.013 | [5] -0.005 | [6] 0.005 | [7] 0.005 | vorinostat 0.06 | silmitasertib -0.014 | [8] -0.042 | entospletinib 0.016

VTN (UniProt P04004)
inactive: nilotinib 0.04 | [1] 0.064 | dasatinib 0.019 | [2] -0.102 | [3] 0 | quisinostat 0.022 | tipifarnib -0.092 | [4] 0.006 | [5] -0.063 | [6] -0.03 | [7] 0.126 | vorinostat -0.07 | silmitasertib -0.076 | [8] -0.085 | entospletinib -0.146

VPS35 (UniProt Q96QK1)
inactive: nilotinib 0.013 | [1] 0.004 | dasatinib -0.024 | [2] 0.025 | [3] -0.008 | quisinostat 0.002 | tipifarnib 0.003 | [4] -0.008 | [5] 0.015 | [6] -0.022 | [7] -0.018 | vorinostat 0.015 | silmitasertib -0.011 | [8] 0.002 | entospletinib 0

WIPF3 (UniProt A6NGB9)
inactive: nilotinib 0.041 | [1] -0.032 | dasatinib -0.045 | [2] 0.025 | [3] 0.036 | quisinostat 0.007 | tipifarnib 0.009 | [4] -0.006 | [5] -0.004 | [6] 0.014 | [7] -0.018 | vorinostat 0.068 | silmitasertib -0.045 | [8] 0.016 | entospletinib 0.016

WDHD1 (UniProt O75717)
active: vorinostat -0.259
inactive: nilotinib -0.008 | [1] 0.026 | dasatinib -0.023 | [2] 0.012 | [3] 0.01 | quisinostat -0.029 | tipifarnib -0.01 | [4] 0.008 | [5] 0.013 | [6] 0.01 | [7] -0.011 | silmitasertib 0.02 | [8] -0.018 | entospletinib 0.016

WDR82 (UniProt Q6UXN9)
inactive: nilotinib 0.031 | [1] -0.006 | dasatinib 0.007 | [2] 0.024 | [3] 0.011 | quisinostat 0.016 | tipifarnib -0.025 | [4] -0.02 | [5] -0.001 | [6] 0.035 | [7] -0.009 | vorinostat -0.121 | silmitasertib 0.006 | [8] -0.018 | entospletinib -0.004

WASF1 (UniProt Q92558)
inactive: nilotinib -0.107 | [1] -0.029 | dasatinib -0.012 | [2] 0.104 | [3] 0.035 | quisinostat -0.032 | tipifarnib 0.031 | [4] -0.003 | [5] 0.056 | [6] 0.005 | [7] 0.044 | vorinostat 0.037 | silmitasertib -0.006 | [8] 0.032 | entospletinib 0.016

VPS72 (UniProt Q15906)
active: vorinostat -0.401
inactive: nilotinib 0.029 | [1] 0.032 | dasatinib -0.054 | [2] 0.05 | [3] 0.073 | quisinostat 0.005 | tipifarnib 0.088 | [4] 0.05 | [5] -0.03 | [6] -0.036 | [7] 0.11 | silmitasertib -0.018 | [8] -0.029 | entospletinib -0.014

Quoted from above (2 entries):
WIPF3 (UniProt A6NGB9)
inactive: nilotinib 0.041 | [1] -0.032 | dasatinib -0.045 | [2] 0.025 | [3] 0.036 | quisinostat 0.007 | tipifarnib 0.009 | [4] -0.006 | [5] -0.004 | [6] 0.014 | [7] -0.018 | vorinostat 0.068 | silmitasertib -0.045 | [8] 0.016 | entospletinib 0.016

WDHD1 (UniProt O75717)
active: vorinostat -0.259
inactive: nilotinib -0.008 | [1] 0.026 | dasatinib -0.023 | [2] 0.012 | [3] 0.01 | quisinostat -0.029 | tipifarnib -0.01 | [4] 0.008 | [5] 0.013 | [6] 0.01 | [7] -0.011 | silmitasertib 0.02 | [8] -0.018 | entospletinib 0.016

(cont.)

WRAP73 (UniProt Q9P2S5)
inactive: nilotinib 0.017 | [1] 0.145 | dasatinib 0.15 | [2] -0.003 | [3] 0.076 | quisinostat -0.053 | tipifarnib -0.021 | [4] 0.029 | [5] -0.019 | [6] 0.071 | [7] 0.006 | vorinostat 0.019 | silmitasertib 0.072 | [8] 0.012 | entospletinib 0.049

VPS16 (UniProt Q9H269)
inactive: nilotinib 0 | [1] 0.011 | dasatinib -0.013 | [2] 0.014 | [3] 0.021 | quisinostat -0.095 | tipifarnib -0.012 | [4] 0.022 | [5] 0.004 | [6] 0.009 | [7] -0.047 | silmitasertib 0.076 | [8] -0.01 | entospletinib 0.03
active: vorinostat -0.543
